Data as given in PubChem BioAssay AID504784 (Drosophila RNAi Screening Center, 2011)

Test: 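Search for regulators of lipid droplet storage in oleate-fed fly cells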 (primary screen)
Cell system: Drosophila Kc167 embryonic cells
Knock-down reagent: long dsRNA against Drosophila genes, about 250 ng dsRNA per well
Time to read-out: 4 days
Treatment: cells fed 400 µM oleic acid bound to BSA
Read-out: 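Microscope images give a droplet-to-nucleus area ratio, taken as log and converted to a screen-wide B-score; higher values mean greater lipid storage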
Direction: droplet/nuclear area B-score: higher = more stored lipid (overstorage)
The deposit covers about 17,000 reagents; this is a random part of those that have a named target and a result. 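Each column is one replicate's B-score; the combined score over replicates was not deposited, so single values may mislead.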 A plus sign joins genes that one reagent is predicted to hit.

gene,DRSC id,"droplet/nuclear area B-score, replicate 1","droplet/nuclear area B-score, replicate 2","droplet/nuclear area B-score, replicate 3"
CG10000,DRSC14170,-0.865,1.13,
Ubr1,DRSC20148,0.558,-1.55,
Vha14-1,DRSC07571,-0.082,-0.832,
Uev1A,DRSC09763,0.71,-1.35,
CG13449,DRSC09996,-0.107,-0.845,
CG31815,DRSC01548,0.113,0.212,
CG31371,DRSC15079,0.255,-0.954,
CG12061,DRSC20715,0.264,0.0023,
CG15317,DRSC18005,0.301,0.532,0.23
CG3306,DRSC10357,0.912,-0.474,
CG30432,DRSC04833,1.9,2.23,
Vha36-1,DRSC07098,,-0.462,
CG5783,DRSC02894,-1.56,-1.42,
t-Grip91,DRSC01506,-0.391,-0.122,
CG11293 (retired record),DRSC04098,-0.879,0.714,
ind,DRSC11355,2.26,1.92,
ind,DRSC23095,0.0229,-2.5,
Rh4,DRSC11268,0.127,-0.616,-1.31
Mhc,DRSC03367,5.12,4.82,
CG14036,DRSC02361,-0.107,1.09,
gry,DRSC08028,-0.0419,-0.367,
gry,DRSC08518,0.255,,
Ih,DRSC07445,0.662,-0.443,
Argk2,DRSC10483,0.485,0.797,
Argk2,DRSC23349,-1,-0.333,
CG17343,DRSC02606,-0.765,-0.737,
CG17343,DRSC22807,0.145,0.173,
rau,DRSC03125,0.455,-0.0665,
PI31,DRSC07306,0.638,1.19,
Cht11,DRSC18270,0.762,0.697,
jv,DRSC08831,-1.75,-2.8,
Lamtor5,DRSC18491,-0.217,-0.187,
CG7289,DRSC00697,1,0.0494,
DCP2,DRSC10597,3.53,2.68,1.91
zetaCOP,DRSC11412,10.1,12.1,
CG6356,DRSC16026,1.06,0.784,
Osi13,DRSC12281,2.2,0.975,
Ptp69D,DRSC11258,1.18,-0.564,
CG5265,DRSC15756,0.0285,0.0944,
BomS3,DRSC21458,0.482,0.473,
l(3)72Dn,DRSC10468,-0.0829,0.289,1.27
Fancd2,DRSC15208,-0.41,-0.0217,
Fancd2,DRSC22763,0.119,,
Pi4KIIIalpha,DRSC18655,2.51,1.63,
Tie,DRSC08104,0.623,-2.82,
Tie,DRSC08702,-2.69,,
Nlg1,DRSC12485,2.86,0.00839,
Nlg1,DRSC12532,0.267,-0.525,
Nlg1,DRSC12533,0.578,-0.175,
Nlg1,DRSC12539,-1.97,0.0135,
alpha4GT1,DRSC00488,0.273,-0.539,
sick,DRSC02090,0.0736,1.19,
sick,DRSC02301,-0.812,-0.795,
sick,DRSC02302,1.85,1.2,
sick,DRSC02303,0.769,1.65,
sick,DRSC02306,2.14,-0.134,
CG31259,DRSC14366,-0.119,1.17,
CG16743,DRSC02514,0.741,-3.21,
sff,DRSC10590,1.23,0.155,-0.318
CG15385,DRSC00399,0.16,-3.96,
GstE12,DRSC04047,-0.0924,-0.769,

Continued, starting with the last 13 of the part before.
gene,DRSC id,"droplet/nuclear area B-score, replicate 1","droplet/nuclear area B-score, replicate 2","droplet/nuclear area B-score, replicate 3"
Nlg1,DRSC12533,0.578,-0.175,
Nlg1,DRSC12539,-1.97,0.0135,
alpha4GT1,DRSC00488,0.273,-0.539,
sick,DRSC02090,0.0736,1.19,
sick,DRSC02301,-0.812,-0.795,
sick,DRSC02302,1.85,1.2,
sick,DRSC02303,0.769,1.65,
sick,DRSC02306,2.14,-0.134,
CG31259,DRSC14366,-0.119,1.17,
CG16743,DRSC02514,0.741,-3.21,
sff,DRSC10590,1.23,0.155,-0.318
CG15385,DRSC00399,0.16,-3.96,
GstE12,DRSC04047,-0.0924,-0.769,
Ttc7,DRSC04836,-0.424,0.755,
Syb,DRSC07559,-0.118,-0.1,
tctn + B9d2,DRSC03160,0.0954,-0.0288,
CG17047,DRSC06648,-1.11,-0.061,
ps,DRSC15149,-0.0527,0.35,
ps,DRSC15151,1.26,0.631,
ps,DRSC15152,-0.0843,2.19,
ps,DRSC16388,1.99,1.83,
ps,DRSC22989,-1.77,1.89,
CG10011,DRSC14174,-1.58,,
CG30122,DRSC06776,1.17,0.982,
CG30122,DRSC06935,0.781,0.727,
CG7910,DRSC16341,1.29,0.61,
CG6225,DRSC15996,-0.146,-0.106,
tna,DRSC10937,-1.77,-0.901,
tna,DRSC23236,-0.702,0.0487,
CG3534,DRSC15494,1.43,-0.0635,
CG2147,DRSC18211,7.17,3.34,0.552
Mvd,DRSC20096,1.53,0.0562,-0.437
obst-I,DRSC08339,-2.14,2.96,
CG13840,DRSC14690,3.24,-0.814,
CG13840,DRSC23279,-0.324,-0.0226,
GABA-B-R1,DRSC22038,-0.21,-0.0119,
aft,DRSC07576,0.661,0.0224,
dpr14,DRSC17767,-0.916,0.0214,1.26
narya,DRSC19439,-2.11,-0.747,
bchs,DRSC03126,1.52,-1.73,
CG2577,DRSC19863,2.6,2.98,-0.0557
CG2577,DRSC23309,2.48,2.13,
CG33282,DRSC00422,-0.486,0.612,
PCNA2,DRSC02030,-2.1,-0.0838,
CG10171,DRSC09711,-0.291,0.0898,
mRpL55,DRSC14764,2.6,-2.6,
CG33332,DRSC15504,3.62,0.931,
RnrL,DRSC03413,-1.52,-0.429,
mRpL17,DRSC08350,1.31,2.14,
Dref,DRSC03319,0.733,0.544,
CG9106,DRSC20154,0.461,0.629,-0.478
pHCl-2,DRSC14306,-1.65,-0.0522,
AlaRS,DRSC01851,0.432,-1.37,
smash,DRSC12139,-0.802,0.684,0.381
smash,DRSC12239,1,-0.622,
Fum3,DRSC10592,-0.138,-0.917,
CG4629,DRSC00659,-0.934,-0.616,
